The list shows a part of the results. The calls rarely recur for the same compound in another form.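 In K562 cells expressing nanoluciferase-fused kinases, luminescence was recorded at 4 h intervals between 2 and 18 h, normalized as percent of control with DMSO at 100% and a positive control at 0%. A significant (2 sigma) signal drop marks a time point as decreased. The authors' rule for a hit is not shown and takes in more than the number of time points.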

Sequences of proteins named here, by UniProt entry; tags and fusion partners are left off.
UniProt Q16620, whole entry, looked up: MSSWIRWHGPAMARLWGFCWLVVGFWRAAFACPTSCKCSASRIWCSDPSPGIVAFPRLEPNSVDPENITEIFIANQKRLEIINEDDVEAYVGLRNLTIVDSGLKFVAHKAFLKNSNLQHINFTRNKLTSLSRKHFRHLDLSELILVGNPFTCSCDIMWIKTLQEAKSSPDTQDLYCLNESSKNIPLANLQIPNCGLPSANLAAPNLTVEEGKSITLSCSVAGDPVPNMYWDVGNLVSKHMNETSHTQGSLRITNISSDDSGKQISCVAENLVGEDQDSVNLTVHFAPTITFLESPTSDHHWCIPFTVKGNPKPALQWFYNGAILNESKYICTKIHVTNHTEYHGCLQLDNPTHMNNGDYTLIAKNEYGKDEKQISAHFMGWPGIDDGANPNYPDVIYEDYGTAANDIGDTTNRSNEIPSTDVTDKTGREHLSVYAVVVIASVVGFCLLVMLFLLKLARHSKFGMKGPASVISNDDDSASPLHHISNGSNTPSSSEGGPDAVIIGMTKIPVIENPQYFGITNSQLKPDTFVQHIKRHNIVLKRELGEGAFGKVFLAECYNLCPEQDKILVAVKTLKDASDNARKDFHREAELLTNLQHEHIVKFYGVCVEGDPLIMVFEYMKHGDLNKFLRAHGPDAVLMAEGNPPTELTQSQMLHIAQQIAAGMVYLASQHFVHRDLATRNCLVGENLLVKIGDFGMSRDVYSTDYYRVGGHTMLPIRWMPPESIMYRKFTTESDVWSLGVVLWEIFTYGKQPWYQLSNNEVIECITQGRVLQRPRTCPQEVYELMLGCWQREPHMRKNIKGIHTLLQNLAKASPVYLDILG

This test addresses NTRK2 (UniProt Q16620). The test can be described thus: number of time points (of 5) at which kinase-Nluc abundance scored as decreased, DMSO-normalised (count); higher = more persistent destabilization. Particulars: K562; 2-18 h.
In the case of `CC(Sc1nc2c(cnn2-c2cccc(Cl)c2)c(=O)[nH]1)C(N)=O` (stereo not drawn) (10 µM), the “number of time points” value was 0. For the compound `Cc1cc(O)c2c(c1)C(=O)c1cccc(O)c1C2=O` [Chrysophanol] (2 µM), the “number of time points” value amounted to 0. `O=C1OC(/C=C/c2ccccc2)=NC/1=C\c1cccnc1` (10 µM): the “number of time points” value worked out at 0.

(Values after the supplement of paper PMC12823440, “Inhibitors supercharge kinase turnover through native proteolytic circuits” (Nature, 2025).)
